In paper PMC5607100:
These are yes or no findings as the source states them, for the method shown. For some assays here: In cells and extracts the contact can be indirect. Some results given as binding are weak or reduced against the parent protein; the word gives no strength. For some assays here: Tags and fused reporters may be left off the sequences shown. Values belong to the binder of their own block, whether it stands above or below them.

Assays:
[1] = molecular target: Pma1, plasma membrane H^+‐ATPase (S. cerevisiae (endogenous in BY4741-based strains)) (UniProt P05030); test: native gel or EMSA; blue native PAGE (3.5%-15%) of yeast microsomes solubilised in ComplexioLyte 48 buffer, 30 minutes at 4°C; Pma1 detected by blot; WT, Δydl121c and Δykl077w strains
[2] = molecular target: T1, Ydl121c, split DHFR fusion (S. cerevisiae) (UniProt Q07541); test: split reporter; in vivo split DiHydro Folate Reductase complementation (Split DHFR screen) in yeast, Ydl121c as query
T1 sequence: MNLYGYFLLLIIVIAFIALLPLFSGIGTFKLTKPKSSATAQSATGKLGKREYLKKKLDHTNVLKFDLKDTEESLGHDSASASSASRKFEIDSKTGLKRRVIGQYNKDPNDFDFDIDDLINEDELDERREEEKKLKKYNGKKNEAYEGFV

- binding [1]: binds
B1: Pma1, plasma membrane H^+‐ATPase (protein, UniProt P05030 1-918)
chain: MTDTSSSSSSSSASSVSAHQPTQEKPAKTYDDAASESSDDDDIDALIEELQSNHGVDDEDSDNDGPVAAGEARPVPEEYLQTDPSYGLTSDEVLKRRKKYGLNQMADEKESLVVKFVMFFVGPIQFVMEAAAILAAGLSDWVDFGVICGLLMLNAGVGFVQEFQAGSIVDELKKTLANTAVVIRDGQLVEIPANEVVPGDILQLEDGTVIPTDGRIVTEDCFLQIDQSAITGESLAVDKHYGDQTFSSSTVKRGEGFMVVTATGDNTFVGRAAALVNKAAGGQGHFTEVLNGIGIILLVLVIATLLLVWTACFYRTNGIVRILRYTLGITIIGVPVGLPAVVTTTMAVGAAYLAKKQAIVQKLSAIESLAGVEILCSDKTGTLTKNKLSLHEPYTVEGVSPDDLMLTACLAASRKKKGLDAIDKAFLKSLKQYPKAKDALTKYKVLEFHPFDPVSKKVTAVVESPEGERIVCVKGAPLFVLKTVEEDHPIPEDVHENYENKVAELASRGFRALGVARKRGEGHWEILGVMPCMDPPRDDTAQTVSEARHLGLRVKMLTGDAVGIAKETCRQLGLGTNIYNAERLGLGGGGDMPGSELADFVENADGFAEVFPQHKYRVVEILQNRGYLVAMTGDGVNDAPSLKKADTGIAVEGATDAARSAADIVFLAPGLSAIIDALKTSRQIFHRMYSYVVYRIALSLHLEIFLGLWIAILDNSLDIDLIVFIAIFADVATLAIAYDNAPYSPKPVKWNLPRLWGMSIILGIVLAIGSWITLTTMFLPKGGIIQNFGAMNGIMFLQISLTENWLIFITRAAGPFWSSIPSWQLAGAVFAVDIIATMFTLFGWWSENWTDIVTVVRVWIWSIGIFCVLGGFYYEMSTSEAFDRLMNGKPMKEKKSTRSVEDFMAAMQRVSTQHEKET

- binding [2]: binds
B2: Ykl077w, split DHFR fusion (protein, UniProt P36081 23-392)
chain: ARQVVRPKEKMTTSEEVKPWLRTVYGSQKELVTPTVIAGVTFSEKPEETPNPLKPWVSLEHDGRPKTIKPEINKGRTKKGRPDYSTYFKTVSSHTYSYEELKAHNMGPNEVFVEEEYIDEDDTYVSLNPIVRCTPNLYFNKGLAKDIRSEPFCTPYENSRWKVDKTYFVTWYTRFFTDENSGKVADKVRVHLSYVKENPVEKGNYKRDIPATFFSSEWIDNDNGLMPVEVRDEWLQDQFDRRIVVSVQPIYISDEDFDPLQYGILLYITKGSKVFKPTKEQLALDDAGITNDQWYYVALSIPTVVVVFFVFMYFFLYVNGKNRDFTDVTRKALNKKRRVLGKFSEMKKFKNMKNHKYTELPSYKKTSKQN
